This note sets out measurements from paper PMC8249925.

The chains behind the UniProt entries cited, without tags or fusion partners. Residues count along the entry.
UniProt O00206, residues 24-839: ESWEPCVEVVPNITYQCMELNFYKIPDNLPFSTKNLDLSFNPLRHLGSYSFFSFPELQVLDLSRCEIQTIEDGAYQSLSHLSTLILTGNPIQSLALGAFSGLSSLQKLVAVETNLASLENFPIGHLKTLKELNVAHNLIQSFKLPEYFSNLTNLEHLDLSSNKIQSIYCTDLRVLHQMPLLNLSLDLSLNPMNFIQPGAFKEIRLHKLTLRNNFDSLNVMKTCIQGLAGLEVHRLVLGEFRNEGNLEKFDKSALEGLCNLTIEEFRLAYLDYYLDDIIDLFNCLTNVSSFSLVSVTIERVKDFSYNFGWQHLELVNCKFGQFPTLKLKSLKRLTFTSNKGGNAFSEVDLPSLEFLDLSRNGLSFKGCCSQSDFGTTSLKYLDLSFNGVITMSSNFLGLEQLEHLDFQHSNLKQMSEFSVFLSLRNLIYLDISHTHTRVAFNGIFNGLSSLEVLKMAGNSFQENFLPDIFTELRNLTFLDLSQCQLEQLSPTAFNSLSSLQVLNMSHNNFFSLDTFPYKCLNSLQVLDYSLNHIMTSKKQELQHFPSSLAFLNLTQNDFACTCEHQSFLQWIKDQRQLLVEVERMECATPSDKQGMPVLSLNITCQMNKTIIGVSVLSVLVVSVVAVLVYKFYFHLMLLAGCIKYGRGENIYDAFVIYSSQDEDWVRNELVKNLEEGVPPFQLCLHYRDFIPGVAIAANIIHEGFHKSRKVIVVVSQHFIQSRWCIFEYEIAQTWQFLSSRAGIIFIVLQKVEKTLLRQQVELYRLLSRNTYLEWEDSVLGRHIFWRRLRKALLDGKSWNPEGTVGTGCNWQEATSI

Results are given in words; binding and its absence hold for the method and conditions named. In cells and extracts the contact can be indirect. Some binding calls cover weakened binding; strength is not graded here.

The target in the test is toll-like receptor 4 (TLR4) on HEK-Blue hTLR4 cells (human) (UniProt O00206). The test is described as follows: proximity ligation; positive controls in fixed HEK-Blue hTLR4 cells; Duolink PLA with anti-TLR4 and anti-MD2 antibodies, or anti-Ku70 and anti-Ku80 antibodies.

B1: myeloid differentiation 2 (MD-2) (protein, UniProt Q9Y6Y9 19-160)
chain: QKQYWVCNSSDASISYTYCDKMQYPISINVNPCIELKRSKGLLHIFYIPRRDLKQLYFNLYITVNTMNLPKRKEVICRGSDDDYSFCRALKGETVNTTISFSFKGIKFSKGKYKCVVEAISGSPEEMLFCLEFVILHQPNSN
B1: the binding entry is on record as “binds”.
